Source: US20150104808A1 (Janssen / Centocor, published 2015)
Substitutions are numbered along the chain they refer to. In names and notes the source's numbering stands. No constants are given. Whether binding was seen depends on the method and setting. Some binding calls cover weakened binding; strength is not graded here.

B1: P54AR4-83v2 N6C, NEM conjugate (designed binder, not shown: small tags and cut ends)
chain: LPAPKCLVVSEVTEDSARLSWDDPWAFYESFLIQYQESEKVGEAIVLTVPGSERSYDLTGLKPGTEYTVSIYGVHNVYKDTNMRGLPLSAIFTT
modifications: N-ethyl maleimide (NEM) on Cys 6
B2: P54AR4-83v2 V8C, NEM conjugate (designed binder, not shown: small tags and cut ends)
chain: B1 chain with C6N, V8C
modifications: N-ethyl maleimide (NEM) on Cys 8
B3: P54AR4-83v2 S10C, NEM conjugate (designed binder, not shown: small tags and cut ends)
chain: B1 chain with C6N, S10C
modifications: N-ethyl maleimide (NEM) on Cys 10
B4: P54AR4-83v2 E11C, NEM conjugate (designed binder, not shown: small tags and cut ends)
chain: B1 chain with C6N, E11C
modifications: N-ethyl maleimide (NEM) on Cys 11
B5: P54AR4-83v2 E14C, NEM conjugate (designed binder, not shown: small tags and cut ends)
chain: B1 chain with C6N, E14C
modifications: N-ethyl maleimide (NEM) on Cys 14
B6: P54AR4-83v2 D15C, NEM conjugate (designed binder, not shown: small tags and cut ends)
chain: B1 chain with C6N, D15C
modifications: N-ethyl maleimide (NEM) on Cys 15
B7: P54AR4-83v2 S16C, NEM conjugate (designed binder, not shown: small tags and cut ends)
chain: B1 chain with C6N, S16C
modifications: N-ethyl maleimide (NEM) on Cys 16
B8: P54AR4-83v2 S20C, NEM conjugate (designed binder, not shown: small tags and cut ends)
chain: B1 chain with C6N, S20C
modifications: N-ethyl maleimide (NEM) on Cys 20
B9: P54AR4-83v2 S30C, NEM conjugate (designed binder, not shown: small tags and cut ends)
chain: B1 chain with C6N, S30C
modifications: N-ethyl maleimide (NEM) on Cys 30
B10: P54AR4-83v2 Q34C, NEM conjugate (designed binder, not shown: small tags and cut ends)
chain: B1 chain with C6N, Q34C
modifications: N-ethyl maleimide (NEM) on Cys 34
B11: P54AR4-83v2 S38C, NEM conjugate (designed binder, not shown: small tags and cut ends)
chain: B1 chain with C6N, S38C
modifications: N-ethyl maleimide (NEM) on Cys 38
B12: P54AR4-83v2 K40C, NEM conjugate (designed binder, not shown: small tags and cut ends)
chain: B1 chain with C6N, K40C
modifications: N-ethyl maleimide (NEM) on Cys 40
B13: P54AR4-83v2 V41C, NEM conjugate (designed binder, not shown: small tags and cut ends)
chain: B1 chain with C6N, V41C
modifications: N-ethyl maleimide (NEM) on Cys 41
B14: P54AR4-83v2 I45C, NEM conjugate (designed binder, not shown: small tags and cut ends)
chain: B1 chain with C6N, I45C
modifications: N-ethyl maleimide (NEM) on Cys 45
B15: P54AR4-83v2 L47C, NEM conjugate (designed binder, not shown: small tags and cut ends)
chain: B1 chain with C6N, L47C
modifications: N-ethyl maleimide (NEM) on Cys 47
B16: P54AR4-83v2 T48C, NEM conjugate (designed binder, not shown: small tags and cut ends)
chain: B1 chain with C6N, T48C
modifications: N-ethyl maleimide (NEM) on Cys 48
B17: P54AR4-83v2 E53C, NEM conjugate (designed binder, not shown: small tags and cut ends)
chain: B1 chain with C6N, E53C
modifications: N-ethyl maleimide (NEM) on Cys 53
B18: P54AR4-83v2 R54C, NEM conjugate (designed binder, not shown: small tags and cut ends)
chain: B1 chain with C6N, R54C
modifications: N-ethyl maleimide (NEM) on Cys 54
B19: P54AR4-83v2 T59C, NEM conjugate (designed binder, not shown: small tags and cut ends)
chain: B1 chain with C6N, T59C
modifications: N-ethyl maleimide (NEM) on Cys 59
B20: P54AR4-83v2 G60C, NEM conjugate (designed binder, not shown: small tags and cut ends)
chain: B1 chain with C6N, G60C
modifications: N-ethyl maleimide (NEM) on Cys 60
B21: P54AR4-83v2 K62C, NEM conjugate (designed binder, not shown: small tags and cut ends)
chain: B1 chain with C6N, K62C
modifications: N-ethyl maleimide (NEM) on Cys 62
B22: P54AR4-83v2 G64C, NEM conjugate (designed binder, not shown: small tags and cut ends)
chain: B1 chain with C6N, G64C
modifications: N-ethyl maleimide (NEM) on Cys 64
B23: P54AR4-83v2 T68C, NEM conjugate (designed binder, not shown: small tags and cut ends)
chain: B1 chain with C6N, T68C
modifications: N-ethyl maleimide (NEM) on Cys 68
B24: P54AR4-83v2 S70C, NEM conjugate (designed binder, not shown: small tags and cut ends)
chain: B1 chain with C6N, S70C
modifications: N-ethyl maleimide (NEM) on Cys 70
B25: P54AR4-83v2 L88C, NEM conjugate (designed binder, not shown: small tags and cut ends)
chain: B1 chain with C6N, L88C
modifications: N-ethyl maleimide (NEM) on Cys 88
B26: P54AR4-83v2 S89C, NEM conjugate (designed binder, not shown: small tags and cut ends)
chain: B1 chain with C6N, S89C
modifications: N-ethyl maleimide (NEM) on Cys 89
B27: P54AR4-83v2 A90C, NEM conjugate (designed binder, not shown: small tags and cut ends)
chain: B1 chain with C6N, A90C
modifications: N-ethyl maleimide (NEM) on Cys 90
B28: P54AR4-83v2 I91C, NEM conjugate (designed binder, not shown: small tags and cut ends)
chain: B1 chain with C6N, I91C
modifications: N-ethyl maleimide (NEM) on Cys 91
B29: P54AR4-83v2 T93C, NEM conjugate (designed binder, not shown: small tags and cut ends)
chain: B1 chain with C6N, T93C
modifications: N-ethyl maleimide (NEM) on Cys 93
B30: P54AR4-83v2 A3C, NEM conjugate (designed binder, not shown: small tags and cut ends)
chain: B1 chain with A3C, C6N
modifications: N-ethyl maleimide (NEM) on Cys 3
B31: P54AR4-83v2 K5C, NEM conjugate (designed binder, not shown: small tags and cut ends)
chain: B1 chain with K5C, C6N
modifications: N-ethyl maleimide (NEM) on Cys 5
B32: P54AR4-83v2 L7C, NEM conjugate (designed binder, not shown: small tags and cut ends)
chain: B1 chain with C6N, L7C
modifications: N-ethyl maleimide (NEM) on Cys 7
B33: P54AR4-83v2 W25C, NEM conjugate (designed binder, not shown: small tags and cut ends)
chain: B1 chain with C6N, W25C
modifications: N-ethyl maleimide (NEM) on Cys 25
B34: P54AR4-83v2 Y78C, NEM conjugate (designed binder, not shown: small tags and cut ends)
chain: B1 chain with C6N, Y78C
modifications: N-ethyl maleimide (NEM) on Cys 78
B35: P54AR4-83v2 T81C, NEM conjugate (designed binder, not shown: small tags and cut ends)
chain: B1 chain with C6N, T81C
modifications: N-ethyl maleimide (NEM) on Cys 81
B36: P54AR4-83v2 N82C, NEM conjugate (designed binder, not shown: small tags and cut ends)
chain: B1 chain with C6N, N82C
modifications: N-ethyl maleimide (NEM) on Cys 82

Biological target: EGFR as used in the EGFR binding assay of Example 5 (human) (UniProt P00533)
Assay: summary of the cysteine scan

binding, binds:
B1, B2, B3, B4, B5, B6, B7, B8, B9, B10, B11, B12, B13, B14, B15, B16, B17, B18, B19, B20, B21, B22, B23, B24, B25, B26, B27, B28, B29

Biological target: EGFR as used in the EGFR binding assay of Example 5 (human) (UniProt P00533)
Assay: EGFR binding ELISA, NEM conjugate

binding, binds:
B30, B31, B32, B33, B34, B35, B36
